Residue numbers refer to the chain shown, from its start. No constants are given. Whether binding was seen depends on the method and setting. Some binding calls cover weakened binding; strength is not graded here.
How the values were obtained:
[1] = target: IL-13 (human IL-13, preparation not specified) (human) (UniProt P35225); assay: dot blot on IL-13 purified protein, non-reduced
[2] = target: IL-13 (human IL-13, preparation not specified) (human) (UniProt P35225); assay: competition ELISA: antibody pre-incubated with soluble IL-13, then put on plates coated with IL-13RbFc
[3] = target: Human IL-13-Mouse IL-13 Helix B chimera (human with mouse Helix B) (UniProt P35225); assay: ELISA on secreted chimeric IL-13
[4] = target: Human IL-13-Mouse IL-13 Helix D chimera (human with mouse Helix D); assay: ELISA on secreted chimeric IL-13
[5] = target: Human IL-13-Mouse IL-13 Helix A chimera (human with mouse Helix A) (UniProt P35225); assay: ELISA on secreted chimeric IL-13
[6] = target: Human IL-13-Mouse IL-13 Helix C chimera (human with mouse Helix C) (UniProt P35225); assay: ELISA on secreted chimeric IL-13
[7] = target: IL-13 (human IL-13, preparation not specified) (human) (UniProt P35225); assay: ELISA on secreted IL-13
693 phage = target: T1, 693 phage; assay: panning of a 12-mer random peptide phage display library on mAb 693
T1 sequence (peptide): YKIGEPHKDTYM

Sequences of proteins named here, by UniProt entry; tags and fusion partners are left off. A change or cut given only in a name is not applied to a line headed by its entry. Residues count along the entry.
UniProt P35225, residues 35-146: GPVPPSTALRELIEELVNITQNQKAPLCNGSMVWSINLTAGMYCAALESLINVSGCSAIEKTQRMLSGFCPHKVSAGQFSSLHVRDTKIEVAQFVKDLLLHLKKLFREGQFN

[8] = target: IL-13 (human IL-13, preparation not specified) (human) (UniProt P35225); assay: dot blot on IL-13 purified protein

Measured: binding

B1: antibody 623 (antibody, V domains shown)
VH: EVQLVESGGGLVKPGGSLRLSCAASGFTFSNAWMSWVRQAPGKGLEWVGRIRSEIDGGTTNYAAPVKGRFTISRDDSKNTLYLQMNSLKTEDTAVYYCATDQVGAYYGDYYGMDVWGQGTLVTVSS
VL: SYELTQPPSVSVSPGQTARITCSGDALPEKYAYWYQQKSGQAPVLVIYEDSKRPSGIPERFSGSSSGTMATLTISGAQVEDEADYYCHSTDSSGNHGVFGGGTKLTVL
binds: [1] | [2] | [3] | [4] | [5] | [6] | [7]

B2: antibody 693 (antibody, V domains shown)
VH: QVQLQESGPGLVKPSETLSLTCSVSGGSISSYYWSWIRQPAGKGLEWIGRIYMTGRTNYNSSLKSRVTMSIDTSKNQLSLKLSFMTAADTAVYYCARESGSSYSYDYWGQGTLVTVSS
VL: SYVLTQPPSVSVAPGQTARITCGGNNIGSKGVHWYQQKPGQAPVLVVYDDSDRPSGIPERFSGSNSGNTATLTISRVEAGDEADYYCQVWVSSSDHHVVFGGGTKLTVV
binds: 693 phage | [3] | [5] | [6] | [8] | [7]

B3: antibody 602 (antibody, V domains shown)
VH: B1 VH with E54K, T60I
VL: B1 VL with S51T, H88Y
binds: [1] | [3] | [4] | [5] | [6] | [7]

B4: antibody 643 (antibody, V domains shown)
VH: B1 VH with K89R
VL: B1 VL
binds: [1] | [3] | [4] | [5] | [6] | [7]

— patent US20220281966A1
